This is one part of the list. The main result of the screen is listed elsewhere. These columns were measured beside it and carry no call. Most of these compounds were active or inconclusive in the main read-out, so they are no random draw. The note in brackets gives the kind of curve behind each potency; many fits are weak.
Assay: qHTS Assay for Lipid Storage Modulators in Drosophila S3 Cells;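 for cell number change: cells counted by Cell Tracker Red CMTPX staining in the red channel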
Conditions: BODIPY lipid droplet fluorescence, 18-24 h; for cell number change: measured here: cell count max response, cells fed with added oleic acid
In short: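 Drosophila S3 cells loaded with oleic acid (400 uM, as added) and compounds at several concentrations; lipid droplets imaged by 488-nm laser-scanning cytometry, 500–530 nm intensity and object ratio to cell channel. Percent activity normalized to 20 uM Triacsin C.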

[1] = measured here: lipid fluorescence (Fed channel) AC50, cells fed with added oleic acid
[2] = measured here: cell number channel AC50, cells fed with added oleic acid

Structure (SMILES)	cell number change	AC50 [1]	AC50 [2]
CCOCCn1cnc2sc(C(=O)NCCCN3CCOCC3)c(C)c2c1=O	-9.73%	3.66 µM [falling, partial curve]	–
Cc1cc(C)c2c(c1)c(C)cc1nnc(SCC(=O)c3cccs3)n12	33.2%	1.84 µM [rising, single point]	9.2 µM [rising, partial curve, poor fit]
Cc1cccc(NC(=O)CN(CC2CCCO2)C(=O)c2cc3ccccc3o2)c1C (centres undefined)	-21.4%	–	–
Cc1cc(N2CCOCC2)nc2ccc(NC(=O)C3CCC(C)CC3)cc12 (centres undefined)	5%	0.231 µM [rising, full curve, poor fit]	–
N#Cc1ccc(COC(=O)C2CCC(=O)N2)cc1 (centres undefined)	-92.7%	–	20.6 µM [falling, single point]
CCOc1ccccc1-c1noc(CCC(=O)NC2CCCCC2)n1	-1.32%	6.31 µM [falling, single point]	6.51 µM [rising, single point]
Cc1cc(=O)[nH]c(Nc2c(C)n(C)n(-c3ccccc3)c2=O)n1	2.83%	1.46 µM [falling, full curve, poor fit]	–
COc1ccc(C)cc1NC(=O)CSCc1cc(=O)n2c(C)csc2n1	-23%	–	–
COc1ccc(-c2c3c(=O)n(C)c(=O)n(C)c3cn2-c2ccc(O)cc2)cc1	16.3%	–	–
Cc1ccc[n+](CC2OCc3ccccc3CO2)c1	-23.3%	18.4 µM [falling, single point]	–
CC(NC(=O)C1CCC(C(=O)NC(C)c2ccccc2)CC1)c1ccccc1 (centres undefined)	-4.5%	29.1 µM [rising, single point]	0.058 µM [rising, full curve, poor fit]
N#Cc1nc(-c2ccc(OCc3ccc(Cl)cc3)cc2)oc1NCc1cccnc1	12.9%	0.259 µM [rising, full curve, poor fit]	–
N#Cc1ccc(N2CCN(C(=O)c3cccs3)CC2)c(F)c1	-6.35%	0.82 µM [rising, single point]	–
COc1cccc(C(NC(C)=O)c2ccc3cccnc3c2O)c1 (centres undefined)	8.74%	–	4.11 µM [rising, single point]
C/C(=N/NC(=O)c1ccoc1C)C12CC3CC(CC(C3)C1)C2	-17.9%	–	0.103 µM [falling, full curve, poor fit]
Cc1ccc(S(=O)(=O)N2CC(O)CC2C(=O)OCc2nc3sc(C)c(C)c3c(=O)[nH]2)cc1 (centres undefined)	7.32%	14.6 µM [rising, single point]	–
CC1(C)c2ccccc2N2CC(=O)NC21/C=C/c1ccco1 (centres undefined)	–	23.1 µM [falling, partial curve]	0.731 µM [falling, single point]
CCCCOc1ccc(C2(C)NC(=O)N(C)C2=O)cc1 (centres undefined)	-1.1%	29.1 µM [falling, single point]	–
CC(Oc1ccc(Cl)cc1Cl)C(=O)Nc1cccnc1 (centres undefined)	-23.1%	29.1 µM [falling, single point]	–

Structure (SMILES)	cell number change	AC50 [1]	AC50 [2]
Cc1ccc(S(=O)(=O)N(C)C)cc1NC(=O)c1ccc(-n2cncn2)c([N+](=O)[O-])c1	-0.129%	0.00461 µM [rising, full curve, poor fit]	–
Cc1onc(-c2c(F)cccc2Cl)c1C(=O)c1ccccc1	-54.7%	29.1 µM [falling, single point]	29.1 µM [falling, single point]
Cc1ccc(NC(=O)c2cccc(S(=O)(=O)N(C)c3ccccc3)c2)cc1S(=O)(=O)N1CCOCC1	-3.23%	–	–
Cc1cc(Br)ccc1NC(=O)CN(C)C(=O)C1CCN(C(=O)c2ccc(F)cc2)CC1	32.5%	–	1.64 µM [rising, partial curve]
Cn1c(O)c(C2=c3ccccc3=NC2=O)sc1=Nc1ccc(Cl)cc1	-25.3%	29.1 µM [falling, single point]	–
O=c1cc(-c2ccc(Cl)cc2)nc(N2CCN(c3ccccc3)CC2)[nH]1	0.529%	–	–
CC[N+](CC)(CC)CCCCOc1ccc2c(c1)C(=O)c1cc(OCCCC[N+](CC)(CC)CC)ccc1-2	0.961%	–	–
COC(c1ccccc1)c1nnc(CCC(=O)N(C)CCOc2ccccc2)o1 (centres undefined)	-17.2%	–	–
Cc1cccc(-c2noc(CCCC(=O)Nc3ccc(C(N)=O)cc3)n2)c1	15.1%	1.84 µM [rising, partial curve]	2.31 µM [rising, partial curve]
NS(=O)(=O)c1cccc(NC(=S)NC(=O)C23CC4CC(CC(C4)C2)C3)c1	-18.3%	–	–
COC(=O)c1ccccc1NC(=O)CSc1nnc(C(CO)NC(=O)c2ccccc2)n1C (centres undefined)	-0.413%	–	0.461 µM [falling, single point]
NS(=O)(=O)c1ccc(CCNC(=O)c2ccc([N+](=O)[O-])cc2[N+](=O)[O-])cc1	113%	8.2 µM [rising, partial curve, poor fit]	16.4 µM [rising, partial curve]
COc1ccccc1NC(=O)c1ccc2c(O)c(S(=O)(=O)c3ccccc3)c(=O)[nH]c2c1	36.1%	–	0.92 µM [rising, full curve, poor fit]
CNc1nc(Cl)c(SC)c(NCc2ccc(F)cc2)n1	-3.42%	2.31 µM [rising, partial curve]	–
CC1(C)CC(=O)C(N=Nc2cc(S(=O)(=O)N3CCOCC3)ccc2Cl)=C(O)C1	-40.7%	8.2 µM [falling, partial curve]	29.1 µM [falling, single point]
O=C(O)c1cc2c(cn1)[nH]c1ccccc12	38.7%	–	29.1 µM [rising, single point]
COc1ccccc1CCNC(=O)c1nccnc1C(=O)O	-11.5%	3.26 µM [falling, full curve, poor fit]	–
CC(C)CCNC(=O)NC(=O)COC(=O)CCN=C1NS(=O)(=O)c2ccccc21	30.6%	4.61 µM [falling, single point]	29.1 µM [rising, single point]

Record cards, as listed above.
C/C(=N/NC(=O)c1ccoc1C)C12CC3CC(CC(C3)C1)C2 is entered as cell number change: -17.9%; AC50 [2]: 0.103 µM [falling, full curve, poor fit]
Cc1cccc(-c2noc(CCCC(=O)Nc3ccc(C(N)=O)cc3)n2)c1 is entered as cell number change: 15.1%; AC50 [1]: 1.84 µM [rising, partial curve]; AC50 [2]: 2.31 µM [rising, partial curve]

Source: PubChem BioAssay AID2685 (National Center for Advancing Translational Sciences (NCATS), 2010)
